Test results as given in US8211893B2, “Protein kinase C zeta inhibition to treat diabetic retinopathy” (The Penn State Research Foundation, priority 2006, dated 2012).
Some results were stated once for a whole list of compounds, not compound by compound.

Protein sequences, listed by entry. Tags and fused reporters are not part of them. Lines headed by an entry give the natural chain unless they say otherwise; changes in a name come on top.
UniProt Q05655: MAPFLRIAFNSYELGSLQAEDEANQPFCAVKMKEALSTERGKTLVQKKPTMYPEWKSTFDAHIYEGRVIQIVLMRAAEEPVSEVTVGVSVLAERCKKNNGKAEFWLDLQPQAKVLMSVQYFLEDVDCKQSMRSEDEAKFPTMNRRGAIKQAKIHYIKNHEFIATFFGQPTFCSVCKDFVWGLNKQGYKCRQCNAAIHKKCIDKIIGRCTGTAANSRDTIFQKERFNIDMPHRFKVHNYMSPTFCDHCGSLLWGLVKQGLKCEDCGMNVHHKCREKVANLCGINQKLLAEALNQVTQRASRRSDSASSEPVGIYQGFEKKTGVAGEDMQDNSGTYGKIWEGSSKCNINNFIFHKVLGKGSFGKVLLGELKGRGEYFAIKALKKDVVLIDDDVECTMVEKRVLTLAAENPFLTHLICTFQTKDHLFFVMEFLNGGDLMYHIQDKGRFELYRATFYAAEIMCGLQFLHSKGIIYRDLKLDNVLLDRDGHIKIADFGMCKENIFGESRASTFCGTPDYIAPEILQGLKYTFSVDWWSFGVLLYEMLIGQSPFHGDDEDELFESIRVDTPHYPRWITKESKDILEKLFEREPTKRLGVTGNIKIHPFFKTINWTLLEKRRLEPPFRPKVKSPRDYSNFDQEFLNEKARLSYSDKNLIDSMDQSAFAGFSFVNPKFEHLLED

Target: PKC-delta (Homo sapiens, UniProt Q05655)
Test: IC50 determination for PKC-delta
Assay type: biochemical
Details: read-out: IC50 for PKC-delta

SMILES: CCOC(=O)c1c(NC(C)=O)sc(/C(C)=N/O)c1-c1ccccc1 [formula (I), ethyl (5E)-2-acetylimino-5-[1-(hydroxyamino)ethylidene]-4-phenyl-thiophene-3-carboxylate]
- IC50: > 100 µM
